Experiment in all cases: activity assay
One series has as its system T1, MG151-94.
T1 sequence: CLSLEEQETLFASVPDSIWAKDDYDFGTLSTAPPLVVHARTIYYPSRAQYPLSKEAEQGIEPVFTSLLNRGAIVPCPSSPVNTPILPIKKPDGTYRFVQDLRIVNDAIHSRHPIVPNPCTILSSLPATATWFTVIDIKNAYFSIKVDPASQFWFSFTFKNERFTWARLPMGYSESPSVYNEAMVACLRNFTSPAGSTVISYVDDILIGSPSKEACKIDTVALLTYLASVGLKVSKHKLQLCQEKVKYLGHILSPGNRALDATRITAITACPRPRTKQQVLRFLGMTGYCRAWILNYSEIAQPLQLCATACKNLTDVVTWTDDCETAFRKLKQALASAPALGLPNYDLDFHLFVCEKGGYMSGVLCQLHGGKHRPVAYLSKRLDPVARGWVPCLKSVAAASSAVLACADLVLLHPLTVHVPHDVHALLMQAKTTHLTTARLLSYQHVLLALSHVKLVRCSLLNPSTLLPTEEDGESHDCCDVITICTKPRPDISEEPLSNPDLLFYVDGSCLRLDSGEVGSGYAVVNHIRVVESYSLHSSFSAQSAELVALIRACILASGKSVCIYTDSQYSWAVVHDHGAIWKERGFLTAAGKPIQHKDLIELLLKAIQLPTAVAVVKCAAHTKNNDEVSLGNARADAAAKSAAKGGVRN
Conditions: primer extension gel; protein translated in vitro; protein details: Strep, RT-RNase H trim; label: 5'-FAM primer; DNA:RNA hybrid.

Another series relates to T2, MG153-51.
T2 sequence (limits assumed): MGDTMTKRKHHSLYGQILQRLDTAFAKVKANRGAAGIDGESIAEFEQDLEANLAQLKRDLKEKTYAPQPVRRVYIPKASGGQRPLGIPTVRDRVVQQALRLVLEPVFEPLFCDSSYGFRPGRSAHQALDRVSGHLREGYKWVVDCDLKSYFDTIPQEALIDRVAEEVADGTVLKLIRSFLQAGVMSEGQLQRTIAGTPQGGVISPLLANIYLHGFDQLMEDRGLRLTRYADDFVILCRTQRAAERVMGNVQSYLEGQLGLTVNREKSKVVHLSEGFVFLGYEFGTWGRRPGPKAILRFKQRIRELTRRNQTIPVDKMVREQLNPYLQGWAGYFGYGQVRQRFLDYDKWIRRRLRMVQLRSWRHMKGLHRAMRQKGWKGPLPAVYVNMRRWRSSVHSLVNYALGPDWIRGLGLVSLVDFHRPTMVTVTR
Conditions: primer extension gel; 3 mM MgCl2, 37 C; protein translated in vitro; protein details: N-terminal Strep; label: 5'-FAM primer; DNA:RNA hybrid.

A further series relates to T3, MG154-1.
T3 sequence: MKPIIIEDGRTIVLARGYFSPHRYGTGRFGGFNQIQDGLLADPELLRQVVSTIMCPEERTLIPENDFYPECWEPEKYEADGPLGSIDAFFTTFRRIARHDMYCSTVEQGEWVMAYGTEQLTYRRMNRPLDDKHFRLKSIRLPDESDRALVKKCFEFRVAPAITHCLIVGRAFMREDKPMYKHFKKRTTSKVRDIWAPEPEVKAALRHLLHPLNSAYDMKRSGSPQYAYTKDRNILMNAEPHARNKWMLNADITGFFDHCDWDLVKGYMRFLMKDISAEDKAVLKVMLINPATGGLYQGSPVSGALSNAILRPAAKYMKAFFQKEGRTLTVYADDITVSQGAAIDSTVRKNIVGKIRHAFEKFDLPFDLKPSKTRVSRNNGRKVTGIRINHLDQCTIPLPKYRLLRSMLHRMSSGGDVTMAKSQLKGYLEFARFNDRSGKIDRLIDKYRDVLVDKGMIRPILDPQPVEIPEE
As to conditions: tested, not listed as active; protein translated in vitro; protein details: N-terminal Strep; label: 5'-FAM primer; DNA:RNA hybrid.

Construct, isoform or probe ends are uncertain for at least one entry. For part of these data: A negative result means that nothing was seen under these conditions. Protein sequences can lack the tags named with them.

For the sequence “GGCAAACCGCCTCTCCCCGCGCGTTGGCCGATTCATTAATGCAGCTGGCACGACAGGTTTCCCGACTGGAAAGGAGACCCGGGCAGTGAGCGCAACGGGTCTCCAATTTAAGCCAGCCCCGACACCCGCCAACACCCGCTGACGCGCCCTGACGGGCTTGTCTGCTCCCGGCATCCGCTTACAGACAAGCTGTGACCGTCTC / GAGACGGTCACAGCTTGTCTG [202-nt RNA template annealed to DNA primer]”, the “activity on this sequence” value with MG151-94 was “active”; with MG153-51, “active”; with MG154-1, “not active”.

(Values after patent publication US20260193623.)
